The supplement of paper PMC10060354, “Discovery of a small molecule ligand of FRS2 that inhibits invasion and tumor growth” (Cellular Oncology, 2022)

By UniProt entry, the sequences of proteins in these tests, tags left out. Where a name states a change or a piece, a line headed by the entry shows the natural chain unless it says otherwise.
UniProt Q7Z2Z2: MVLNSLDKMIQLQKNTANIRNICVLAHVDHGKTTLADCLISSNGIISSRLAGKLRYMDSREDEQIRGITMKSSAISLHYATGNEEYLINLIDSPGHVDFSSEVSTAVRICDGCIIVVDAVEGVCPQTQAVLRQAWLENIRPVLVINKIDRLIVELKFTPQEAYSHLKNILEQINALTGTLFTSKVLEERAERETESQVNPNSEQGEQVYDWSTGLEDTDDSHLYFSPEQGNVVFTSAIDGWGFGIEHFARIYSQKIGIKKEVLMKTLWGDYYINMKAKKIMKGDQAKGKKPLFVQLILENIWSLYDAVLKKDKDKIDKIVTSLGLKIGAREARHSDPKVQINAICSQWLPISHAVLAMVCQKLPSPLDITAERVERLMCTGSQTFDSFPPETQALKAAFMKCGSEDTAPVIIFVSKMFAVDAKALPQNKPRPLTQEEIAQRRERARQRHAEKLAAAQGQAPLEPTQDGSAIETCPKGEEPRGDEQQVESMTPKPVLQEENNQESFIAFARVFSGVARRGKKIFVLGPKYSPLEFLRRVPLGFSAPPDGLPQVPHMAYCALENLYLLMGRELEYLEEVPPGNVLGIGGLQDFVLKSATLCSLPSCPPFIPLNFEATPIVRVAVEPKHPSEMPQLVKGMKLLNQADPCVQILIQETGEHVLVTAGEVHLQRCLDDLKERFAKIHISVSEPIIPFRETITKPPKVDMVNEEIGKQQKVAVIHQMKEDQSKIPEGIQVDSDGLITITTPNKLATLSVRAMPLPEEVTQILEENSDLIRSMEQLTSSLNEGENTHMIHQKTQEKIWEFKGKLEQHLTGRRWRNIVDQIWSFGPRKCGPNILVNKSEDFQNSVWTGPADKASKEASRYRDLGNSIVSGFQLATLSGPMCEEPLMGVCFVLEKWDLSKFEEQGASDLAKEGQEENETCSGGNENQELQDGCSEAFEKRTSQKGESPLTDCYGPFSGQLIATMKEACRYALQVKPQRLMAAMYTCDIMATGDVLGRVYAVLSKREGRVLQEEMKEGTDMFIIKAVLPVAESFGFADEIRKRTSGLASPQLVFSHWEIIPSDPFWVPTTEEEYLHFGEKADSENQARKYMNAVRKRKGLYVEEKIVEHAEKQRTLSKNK
UniProt Q9UQB8: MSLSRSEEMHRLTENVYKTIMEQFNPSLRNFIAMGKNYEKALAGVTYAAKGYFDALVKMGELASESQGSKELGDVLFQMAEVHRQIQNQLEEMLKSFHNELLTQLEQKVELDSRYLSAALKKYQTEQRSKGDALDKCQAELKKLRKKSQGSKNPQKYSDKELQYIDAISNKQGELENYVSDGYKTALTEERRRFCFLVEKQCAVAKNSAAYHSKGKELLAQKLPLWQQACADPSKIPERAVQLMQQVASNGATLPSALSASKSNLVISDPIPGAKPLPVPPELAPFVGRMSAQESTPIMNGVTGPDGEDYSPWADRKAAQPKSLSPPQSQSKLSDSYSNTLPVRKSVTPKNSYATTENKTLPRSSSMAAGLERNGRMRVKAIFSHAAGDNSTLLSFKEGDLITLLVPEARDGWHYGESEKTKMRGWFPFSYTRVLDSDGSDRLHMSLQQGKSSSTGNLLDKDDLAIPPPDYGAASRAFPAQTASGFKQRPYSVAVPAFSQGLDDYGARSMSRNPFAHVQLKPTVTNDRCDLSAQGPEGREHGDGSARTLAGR
UniProt Q7Z5G4, whole entry: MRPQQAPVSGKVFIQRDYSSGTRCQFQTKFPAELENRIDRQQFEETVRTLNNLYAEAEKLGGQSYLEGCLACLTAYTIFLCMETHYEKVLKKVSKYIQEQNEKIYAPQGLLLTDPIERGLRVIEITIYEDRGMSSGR
UniProt P07741: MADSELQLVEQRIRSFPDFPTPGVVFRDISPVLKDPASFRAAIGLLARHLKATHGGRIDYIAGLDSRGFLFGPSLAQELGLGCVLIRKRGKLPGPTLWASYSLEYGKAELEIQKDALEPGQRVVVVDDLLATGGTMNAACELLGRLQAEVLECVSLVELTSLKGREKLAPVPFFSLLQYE
UniProt P49750: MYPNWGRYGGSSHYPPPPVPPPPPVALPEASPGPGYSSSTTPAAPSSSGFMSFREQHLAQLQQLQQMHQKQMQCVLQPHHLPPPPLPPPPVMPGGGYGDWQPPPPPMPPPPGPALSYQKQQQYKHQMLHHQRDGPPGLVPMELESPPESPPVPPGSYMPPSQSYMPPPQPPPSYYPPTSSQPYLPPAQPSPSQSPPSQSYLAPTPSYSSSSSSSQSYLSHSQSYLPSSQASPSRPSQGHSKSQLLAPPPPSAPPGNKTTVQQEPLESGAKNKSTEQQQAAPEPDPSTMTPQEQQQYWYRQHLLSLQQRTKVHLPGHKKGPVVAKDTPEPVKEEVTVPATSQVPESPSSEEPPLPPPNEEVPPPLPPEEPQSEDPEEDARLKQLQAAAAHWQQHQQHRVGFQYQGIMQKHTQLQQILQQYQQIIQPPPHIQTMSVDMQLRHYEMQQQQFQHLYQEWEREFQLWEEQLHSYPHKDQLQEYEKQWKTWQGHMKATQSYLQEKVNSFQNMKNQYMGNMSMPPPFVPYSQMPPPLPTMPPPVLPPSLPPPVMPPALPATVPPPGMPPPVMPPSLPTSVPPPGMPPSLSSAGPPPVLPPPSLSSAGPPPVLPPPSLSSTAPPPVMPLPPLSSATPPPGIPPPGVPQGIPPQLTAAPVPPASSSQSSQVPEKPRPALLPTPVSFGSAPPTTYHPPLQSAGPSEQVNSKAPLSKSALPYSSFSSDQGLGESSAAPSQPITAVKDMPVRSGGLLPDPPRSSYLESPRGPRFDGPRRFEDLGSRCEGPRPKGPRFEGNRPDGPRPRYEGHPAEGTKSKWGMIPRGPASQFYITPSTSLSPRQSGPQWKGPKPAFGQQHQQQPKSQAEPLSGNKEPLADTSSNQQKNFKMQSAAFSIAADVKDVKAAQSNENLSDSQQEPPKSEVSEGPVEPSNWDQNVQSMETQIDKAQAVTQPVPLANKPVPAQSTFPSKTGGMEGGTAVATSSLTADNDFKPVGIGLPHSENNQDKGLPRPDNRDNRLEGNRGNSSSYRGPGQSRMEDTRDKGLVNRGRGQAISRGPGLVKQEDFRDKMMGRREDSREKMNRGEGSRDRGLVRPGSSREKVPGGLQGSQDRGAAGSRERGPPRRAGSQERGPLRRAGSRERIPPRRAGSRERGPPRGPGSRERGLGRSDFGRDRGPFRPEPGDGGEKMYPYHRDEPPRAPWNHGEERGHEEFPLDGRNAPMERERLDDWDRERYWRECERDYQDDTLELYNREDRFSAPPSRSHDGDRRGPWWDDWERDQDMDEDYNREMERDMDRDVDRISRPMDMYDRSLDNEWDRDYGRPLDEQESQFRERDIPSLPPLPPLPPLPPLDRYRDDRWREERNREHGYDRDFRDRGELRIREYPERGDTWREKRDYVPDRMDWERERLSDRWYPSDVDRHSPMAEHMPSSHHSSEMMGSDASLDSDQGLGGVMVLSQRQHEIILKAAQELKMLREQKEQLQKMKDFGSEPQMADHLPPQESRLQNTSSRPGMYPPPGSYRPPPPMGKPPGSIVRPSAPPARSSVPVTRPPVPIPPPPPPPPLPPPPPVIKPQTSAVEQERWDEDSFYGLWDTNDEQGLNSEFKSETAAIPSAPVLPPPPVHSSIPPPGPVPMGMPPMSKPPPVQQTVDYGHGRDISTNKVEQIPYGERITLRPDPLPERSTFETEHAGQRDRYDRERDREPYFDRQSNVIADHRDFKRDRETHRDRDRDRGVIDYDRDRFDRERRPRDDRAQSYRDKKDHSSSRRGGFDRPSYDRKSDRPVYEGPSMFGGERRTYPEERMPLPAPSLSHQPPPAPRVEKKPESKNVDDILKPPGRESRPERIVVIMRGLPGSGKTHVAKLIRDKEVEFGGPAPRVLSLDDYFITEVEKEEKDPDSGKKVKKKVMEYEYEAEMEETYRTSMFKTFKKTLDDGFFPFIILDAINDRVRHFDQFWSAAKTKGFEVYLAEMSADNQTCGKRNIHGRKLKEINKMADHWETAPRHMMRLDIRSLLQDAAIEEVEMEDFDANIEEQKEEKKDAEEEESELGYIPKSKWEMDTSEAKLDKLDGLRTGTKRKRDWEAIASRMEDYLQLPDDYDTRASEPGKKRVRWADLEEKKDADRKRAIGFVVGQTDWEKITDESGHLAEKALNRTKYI
UniProt Q8N3R9: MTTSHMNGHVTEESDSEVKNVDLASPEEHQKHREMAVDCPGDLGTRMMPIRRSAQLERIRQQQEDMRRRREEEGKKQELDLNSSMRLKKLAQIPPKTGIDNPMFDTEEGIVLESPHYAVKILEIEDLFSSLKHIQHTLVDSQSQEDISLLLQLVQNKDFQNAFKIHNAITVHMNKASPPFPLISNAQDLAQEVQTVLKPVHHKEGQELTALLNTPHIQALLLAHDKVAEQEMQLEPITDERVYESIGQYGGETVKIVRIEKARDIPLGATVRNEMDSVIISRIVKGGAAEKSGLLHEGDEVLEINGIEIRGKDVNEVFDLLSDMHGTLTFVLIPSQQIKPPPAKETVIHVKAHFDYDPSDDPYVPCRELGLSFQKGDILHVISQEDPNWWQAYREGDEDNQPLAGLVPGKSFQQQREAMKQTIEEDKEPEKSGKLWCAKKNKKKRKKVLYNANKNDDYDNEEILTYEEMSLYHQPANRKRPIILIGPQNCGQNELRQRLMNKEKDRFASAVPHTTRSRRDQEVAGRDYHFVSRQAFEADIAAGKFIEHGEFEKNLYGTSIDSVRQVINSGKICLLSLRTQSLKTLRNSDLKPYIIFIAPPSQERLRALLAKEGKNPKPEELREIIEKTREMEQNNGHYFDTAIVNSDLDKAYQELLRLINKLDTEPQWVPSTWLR
UniProt Q8N511: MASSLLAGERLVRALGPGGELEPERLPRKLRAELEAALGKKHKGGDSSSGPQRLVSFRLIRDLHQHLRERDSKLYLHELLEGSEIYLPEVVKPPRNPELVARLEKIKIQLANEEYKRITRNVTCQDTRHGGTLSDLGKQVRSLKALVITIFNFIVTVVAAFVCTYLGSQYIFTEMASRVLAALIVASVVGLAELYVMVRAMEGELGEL
UniProt Q9Y5L0: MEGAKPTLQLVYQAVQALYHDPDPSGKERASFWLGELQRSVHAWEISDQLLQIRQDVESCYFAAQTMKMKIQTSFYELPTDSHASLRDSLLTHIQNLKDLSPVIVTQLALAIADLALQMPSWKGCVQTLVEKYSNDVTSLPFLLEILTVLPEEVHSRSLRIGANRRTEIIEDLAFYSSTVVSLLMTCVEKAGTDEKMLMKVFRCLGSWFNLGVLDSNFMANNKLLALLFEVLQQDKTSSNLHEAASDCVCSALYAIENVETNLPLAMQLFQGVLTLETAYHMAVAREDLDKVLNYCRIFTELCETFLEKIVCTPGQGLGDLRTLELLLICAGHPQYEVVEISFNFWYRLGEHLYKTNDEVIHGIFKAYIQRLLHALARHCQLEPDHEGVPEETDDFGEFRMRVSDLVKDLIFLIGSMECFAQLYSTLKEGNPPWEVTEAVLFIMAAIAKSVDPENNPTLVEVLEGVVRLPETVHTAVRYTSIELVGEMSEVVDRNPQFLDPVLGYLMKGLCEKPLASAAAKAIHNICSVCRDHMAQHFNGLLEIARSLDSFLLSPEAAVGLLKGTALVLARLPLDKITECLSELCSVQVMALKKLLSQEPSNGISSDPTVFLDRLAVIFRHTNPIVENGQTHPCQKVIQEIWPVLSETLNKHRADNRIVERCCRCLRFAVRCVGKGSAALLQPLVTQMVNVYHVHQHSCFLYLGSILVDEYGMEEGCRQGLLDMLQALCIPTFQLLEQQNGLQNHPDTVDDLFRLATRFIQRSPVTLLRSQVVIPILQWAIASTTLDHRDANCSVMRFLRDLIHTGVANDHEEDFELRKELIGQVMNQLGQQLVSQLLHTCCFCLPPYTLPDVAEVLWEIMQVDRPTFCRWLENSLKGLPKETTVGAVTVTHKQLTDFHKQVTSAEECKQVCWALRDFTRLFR
UniProt Q9BTY2: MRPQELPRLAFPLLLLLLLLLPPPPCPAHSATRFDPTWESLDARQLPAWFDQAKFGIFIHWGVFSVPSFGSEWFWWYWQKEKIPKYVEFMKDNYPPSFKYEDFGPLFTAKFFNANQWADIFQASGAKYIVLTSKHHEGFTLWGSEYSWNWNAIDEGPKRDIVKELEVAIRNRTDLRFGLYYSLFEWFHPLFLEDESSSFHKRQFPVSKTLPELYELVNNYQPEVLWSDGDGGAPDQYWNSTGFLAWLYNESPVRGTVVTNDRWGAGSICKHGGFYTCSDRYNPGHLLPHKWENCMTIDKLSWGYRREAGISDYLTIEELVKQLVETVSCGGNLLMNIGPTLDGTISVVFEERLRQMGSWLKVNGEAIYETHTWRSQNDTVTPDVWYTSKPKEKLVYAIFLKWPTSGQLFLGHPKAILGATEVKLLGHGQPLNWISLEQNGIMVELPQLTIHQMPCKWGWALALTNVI
UniProt Q7Z6V5: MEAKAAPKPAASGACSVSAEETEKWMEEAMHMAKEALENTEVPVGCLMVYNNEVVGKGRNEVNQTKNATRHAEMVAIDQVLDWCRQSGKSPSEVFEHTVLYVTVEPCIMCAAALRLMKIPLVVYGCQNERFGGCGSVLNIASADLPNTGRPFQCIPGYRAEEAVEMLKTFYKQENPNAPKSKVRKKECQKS

Compound: [O-][N+](C(C1=C(C(O)=C2)NC(C(C=C3)=CC=C3Cl)C4C1C=CC4)=C2Cl)=O
Assay: melting temperature shift (compound 7 minus DMSO); higher = compound stabilises the protein
Details: 10 µM
Procedure: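 Thermal proteome profiling (TMT mass spectrometry) in intact DAOY medulloblastoma cells or DAOY lysates treated with 10 µM compound 7 or DMSO, heated at 10 temperatures from 40.5 to 73.8 °C for 3 min. Melting curves were fitted with the Bioconductor TPP package, and the melting point difference between compound and vehicle is reported per protein (single curve per condition).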

[1] = system: DAOY cell lysate, treatment time: 20 min, 4 °C
[2] = system: intact DAOY cells, treatment time: 90 min, 37 °C

Target | melting temperature shift [1] [°C] | melting temperature shift [2] [°C]
UPF2 (UniProt Q9HAU5) | 0.614 | -0.293
FAM188A (UniProt Q9H8M7) | 0.376 | -0.685
MTMR1 (UniProt Q13613) | -0.71 | -1.49
ARRB2 (UniProt P32121) | -0.242 | 2.98
VASP (UniProt P50552) | -0.0492 | -0.706
ATN1 (UniProt P54259) | -1.44 | –
MPZL1 (UniProt O95297) | 3.16 | –
KIAA0196 (UniProt Q12768) | -0.655 | 0.513
ACBD3 (UniProt Q9H3P7) | 0.436 | -0.659
LYAR (UniProt Q9NX58) | 0.395 | -1.07
SLC5A6 (UniProt Q9Y289) | -0.142 | -2.48
EFL1 (UniProt Q7Z2Z2) | -0.62 | 0.717
UniProt Q9H0N0 | – | -2.25
BAIAP2 (UniProt Q9UQB8) | 0.0987 | -0.538
PLS3 (UniProt P13797) | -0.852 | -0.0954
UniProt Q96PU4 | 2.08 | –
UniProt O15525 | – | -0.0245
UniProt Q13404 | -1.24 | -0.713
PNPLA8 (UniProt Q9NP80) | -1.46 | 0.108
UniProt Q15560 | – | 0.363
PSMD12 (UniProt O00232) | -0.495 | -1.04
MRPS21 (UniProt P82921) | -0.315 | -1.91

Target | melting temperature shift [1] [°C] | melting temperature shift [2] [°C]
GOLGA7 (UniProt Q7Z5G4) | 0.761 | 1.39
BIRC6 (UniProt Q9NR09) | -0.484 | -0.418
APRT (UniProt P07741) | -1.36 | -0.965
FBN1 (UniProt P35555) | -0.901 | -0.338
TATDN1 (UniProt Q6P1N9) | -0.556 | -0.162
RFC5 (UniProt P40937) | -0.421 | -1.81
UniProt P05091 | 0.111 | -0.0587
UniProt Q96EC8 | 3.64 | –
GGA1 (UniProt Q9UJY5) | -0.851 | 0.429
UniProt Q9C0D9 | – | -0.994
CDK8 (UniProt P49336) | 0.292 | –
LAP3 (UniProt P28838) | 0.0169 | -1.61
UniProt O43463 | 0.377 | 0.748
VDAC2 (UniProt P45880) | 3.38 | -0.697
UniProt P49750 | 0.934 | -1.91
UniProt O94832 | -0.453 | 1.68
UniProt P22392 | -0.172 | -0.491
MEPCE (UniProt Q7L2J0) | -0.797 | 0.593
MPI (UniProt P34949) | -0.167 | 0.249
YWHAZ (UniProt P63104) | -1.02 | 0.567
CLDND1 (UniProt Q9NY35) | -3.06 | –
UniProt Q6P1R3 | 0.455 | 0.34

Target | melting temperature shift [1] [°C] | melting temperature shift [2] [°C]
ARHGEF10 (UniProt O15013) | -2.53 | –
CHM (UniProt P24386) | -1.29 | 0.715
MPP5 (UniProt Q8N3R9) | -1.39 | 0.121
TRIP13 (UniProt Q15645) | -0.17 | -2.27
TMEM199 (UniProt Q8N511) | – | -1.18
UniProt O00584 | – | 1.21
CAPN1 (UniProt P07384) | -0.622 | 0.561
UniProt Q6ZU15 | – | -0.359
CALR (UniProt P27797) | 1.16 | 0.757
APEX1 (UniProt P27695) | 0.321 | 0.363
UniProt O60237 | – | -1.56
CPSF7 (UniProt Q8N684) | 0.0055 | –
AKAP10 (UniProt O43572) | – | -2.56
RABGAP1 (UniProt Q9Y3P9) | -0.118 | -0.0664
ICT1 (UniProt Q14197) | 0.685 | -2.82
UniProt Q8N1Q1 | – | -1.44
EIF4A3 (UniProt P38919) | -0.465 | 2.15
TNPO3 (UniProt Q9Y5L0) | -0.721 | -0.448
FUCA2 (UniProt Q9BTY2) | 0.12 | -0.0275
SOAT1 (UniProt P35610) | 1.03 | 0.218
UniProt Q02446 | -0.551 | -0.915
RSRC2 (UniProt Q7L4I2) | -0.572 | –

As a working copy, some entries already given.
Target | melting temperature shift [1] [°C] | melting temperature shift [2] [°C]
BIRC6 (UniProt Q9NR09) | -0.484 | -0.418
APRT (UniProt P07741) | -1.36 | -0.965
FBN1 (UniProt P35555) | -0.901 | -0.338
TATDN1 (UniProt Q6P1N9) | -0.556 | -0.162
RFC5 (UniProt P40937) | -0.421 | -1.81
UniProt P05091 | 0.111 | -0.0587
UniProt Q96EC8 | 3.64 | –
GGA1 (UniProt Q9UJY5) | -0.851 | 0.429
UniProt Q9C0D9 | – | -0.994
CDK8 (UniProt P49336) | 0.292 | –
LAP3 (UniProt P28838) | 0.0169 | -1.61
UniProt O43463 | 0.377 | 0.748
VDAC2 (UniProt P45880) | 3.38 | -0.697
UniProt P49750 | 0.934 | -1.91
UniProt O94832 | -0.453 | 1.68
UniProt P22392 | -0.172 | -0.491
MEPCE (UniProt Q7L2J0) | -0.797 | 0.593
MPI (UniProt P34949) | -0.167 | 0.249
YWHAZ (UniProt P63104) | -1.02 | 0.567
CLDND1 (UniProt Q9NY35) | -3.06 | –
UniProt Q6P1R3 | 0.455 | 0.34
ARHGEF10 (UniProt O15013) | -2.53 | –
CHM (UniProt P24386) | -1.29 | 0.715
MPP5 (UniProt Q8N3R9) | -1.39 | 0.121
TRIP13 (UniProt Q15645) | -0.17 | -2.27
TMEM199 (UniProt Q8N511) | – | -1.18

The listing continues.

Target | melting temperature shift [1] [°C] | melting temperature shift [2] [°C]
SPAG9 (UniProt O60271) | -0.314 | 0.476
HELLS (UniProt Q9NRZ9) | 0.315 | –
MSI2 (UniProt Q96DH6) | 0.69 | -0.0819
ADAT2 (UniProt Q7Z6V5) | 0.119 | -2.89
SIRT6 (UniProt Q8N6T7) | -0.525 | 0.601
UniProt Q9BQ87 | – | 1.16
UniProt Q92844 | -9.1 | –
LSM7 (UniProt Q9UK45) | 1.57 | 0.709
FPGS (UniProt Q05932) | 3.09 | –
UniProt Q2M1Z3 | -1.25 | 2.99
KIAA2013 (UniProt Q8IYS2) | 0.0301 | 0.775
TKFC (UniProt Q3LXA3) | -0.665 | -1.28
UniProt Q9UGJ0 | -0.255 | -1.18
HMOX1 (UniProt P09601) | 1.31 | 0.546
UniProt Q9BRY0 | 3.98 | –
RPL7L1 (UniProt Q6DKI1) | 1.11 | 2.14
CEP290 (UniProt O15078) | 0.145 | –
ALG8 (UniProt Q9BVK2) | 0.732 | –
ASL (UniProt P04424) | -0.451 | -0.609

Repeats are few or missing, and single values can be far off.
